From the supplement of paper PMC4371806
In all, about 1,600 compounds were measured (“plate-normalized OD600 growth (mean of duplicates)”: median about 0.31, lowest 2% from about 0.23 on). Some of the results follow.

Tested on: Escherichia coli BW25113
Test: plate-normalized OD600 growth (mean of duplicates) (OD600 (normalized)); higher = more growth (less inhibition)
Details: 10 µM
Method: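 E. coli BW25113 in LB (100 µl, 96-well, no shaking) was exposed to 10 µM of each compound (here the ChemBridge subset of a ~30,000-member library) and grown at 37°C for 24 h or 15°C for 48 h, in duplicate. Growth was read as OD600 and the duplicate ODs were normalized across screening plates to correct plate-to-plate variation.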

Row | Compound | plate-normalized OD600 growth (temperature: 15°C, 48 h) | plate-normalized OD600 growth (temperature: 37°C, 24 h)
1 | CC1CN(C/C=C/c2ccccc2)CC(C)O1 (stereo not given) | 0.232 | 0.603
2 | O=C(c1ccc(Cl)cc1)N1CCN(C(=O)c2ccco2)CC1 | 0.244 | 0.646
3 | CC(=O)Nc1ccc(C(=O)Nc2ccccc2Cl)cc1 | 0.253 | 0.613
4 | CC1CCCC(C)N1C(=O)c1ccc(Cl)cc1 (stereo not given) | 0.256 | 0.611
5 | NC(=O)c1sc2nc3c(cc2c1N)CCCC3 | 0.233 | 0.618
6 | O=C(COc1ccc(Br)cc1)Nc1ccccc1Cl | 0.265 | 0.61
7 | OC(COc1ccc(OCC(O)CN2CCCC2)cc1)CN1CCCC1 (stereo not given) | 0.244 | 0.624
8 | COc1cc(CNc2ccccc2C)cc2c1OCO2 | 0.245 | 0.615
9 | Cc1ccsc1CN1CCN(CCO)CC1 | 0.268 | 0.629
10 | CCN(CC)C(=O)C1CCCN(Cc2ccc(F)cc2F)C1 (stereo not given) | 0.262 | 0.634
11 | CC(=O)c1ccc(Oc2ccc(N)cc2)cc1 | 0.23 | 0.614
12 | CC(Cc1c[nH]c2ccccc12)NC(=O)c1ccco1 (stereo not given) | 0.253 | 0.637
13 | CN1CCCN(Cc2coc3c(Cl)cc(Cl)cc3c2=O)CC1 | 0.245 | 0.631
14 | O=C(NC1CCCCC1)c1ccc(Br)c(S(=O)(=O)N2CCCCC2)c1 | 0.25 | 0.611
15 | N#CC1=C(N)SC(N)=C(C#N)C1c1ccc2c(c1)OCO2 | 0.234 | 0.629
16 | O=C(Nc1cccc(Cl)c1)c1ccccc1C(=O)Nc1cccc(Cl)c1 | 0.26 | 0.649
17 | O=C1CN(S(=O)(=O)CCOc2ccccc2)CC(=O)N1CCc1ccccc1 | 0.256 | 0.632
18 | C#CCSc1nc2ccccc2n1C(=O)c1ccc(S(=O)(=O)N2CCCCC2)cc1 | 0.259 | 0.617
19 | Nc1n[nH]c(-c2ccc(Br)cc2)n1 | 0.255 | 0.611
20 | CSc1nnc2c(n1)OC(c1cc3c(cc1Cl)OCO3)Nc1ccccc1-2 (stereo not given) | 0.241 | 0.61
21 | CC(=O)Nc1cccc(NC(=O)c2cccc(C)c2)c1 | 0.248 | 0.601
22 | COc1ccc(NC(=O)c2ccccc2Br)c(OC)c1 | 0.258 | 0.615
23 | CCSc1nc(NN)c2c3c(sc2n1)CN(C)CC3 | 0.266 | 0.622
24 | NS(=O)(=O)c1cccc(NS(=O)(=O)c2ccc(O)c([N+](=O)[O-])c2)c1 | 0.263 | 0.62
25 | O=C(c1ccccc1[N+](=O)[O-])N1CCN(C(c2ccccc2)c2ccccc2)CC1 | 0.259 | 0.627
26 | CCC(C)c1ccc(NC(=O)c2cccnc2)cc1 (stereo not given) | 0.246 | 0.611
27 | COc1cc(CN2CCN(c3cccc(C)c3C)CC2)cc(Br)c1O | 0.257 | 0.628
28 | Clc1cccc(CN2CCN(c3ccccn3)CC2)c1 | 0.247 | 0.607

Row | Compound | plate-normalized OD600 growth (temperature: 15°C, 48 h) | plate-normalized OD600 growth (temperature: 37°C, 24 h)
29 | Cc1cc(C)c(NC(=O)C2CCCCN2C23CC4CC(CC(C4)C2)C3)c(C)c1 (stereo not given) | 0.258 | 0.623
30 | COc1cccc(N2CCN(C3C4CC5CC(C4)CC3C5)CC2)c1 (stereo not given) | 0.291 | 0.627
31 | O=C(NCc1ccccn1)c1ccccc1F | 0.237 | 0.605
32 | CN1CCOCC1.N=C=C1C(=S)NC2=C(C(=O)CCC2)C1Cc1ccccc1 (stereo not given) | 0.259 | 0.623
33 | O=C(O)CCCC(=O)Nc1ccc(I)cc1 | 0.25 | 0.607
34 | O=[N+]([O-])c1ccc(CNC2CCCC2)cc1 | 0.254 | 0.621
35 | CC(C)(CO)NC(=O)C(C)(C)Oc1ccc(Cl)cc1 | 0.247 | 0.623
36 | Cc1ccccc1OC(=O)OCC(C)C | 0.257 | 0.61
37 | CC(=O)c1ccc(N2CCN(Cc3coc4c(Cl)cc(Cl)cc4c3=O)CC2)cc1 | 0.244 | 0.607
38 | C#CCSc1nc(C)cc(C)c1C#N | 0.24 | 0.613
39 | COc1ccc(N2C(=O)CC(NCc3cccnc3)C2=O)cc1 (stereo not given) | 0.256 | 0.621
40 | COc1ccc2nc(-c3ccccc3)n(C)c2c1OC | 0.247 | 0.614
41 | O=c1cc(Nc2ccc(Br)cc2)[nH]c(=O)[nH]1 | 0.252 | 0.618
42 | CC1=CC(C)C2(COC(=O)Nc3ccccc3)COC(C)C1C2C (stereo not given) | 0.249 | 0.611
43 | CC(=O)Nc1ccc(-c2cc(-c3ccc(NC(C)=O)cc3)nc(-c3ccccc3)n2)cc1 | 0.246 | 0.587
44 | CCOc1ccc(Nc2nc(-c3ccc(C)c(C)c3)cs2)cc1 | 0.248 | 0.605
45 | C#CCSc1nc2c(cc1C#N)CCCCC2 | 0.256 | 0.612
46 | O=C(O)CCC(=O)N1CCN(C(=O)c2ccco2)CC1 | 0.24 | 0.635
47 | CC(=O)Nc1ccc(NC(=O)c2ccc(-c3ccccc3)cc2)cc1 | 0.263 | 0.632
48 | Cc1ccc(NC(=O)c2ccc(Br)o2)c(C)c1 | 0.247 | 0.638
49 | COc1ccc(/C=C(\C#N)c2nc(-c3ccc(F)cc3)cs2)cc1 | 0.228 | 0.615
50 | COc1cc2c(cc1OC)C(c1ccccc1)NCC2 (stereo not given) | 0.248 | 0.611
51 | COc1cccc(NC(=O)c2cccc(I)c2)c1 | 0.244 | 0.596
52 | CC1CCCC(C)N1C(=O)Cc1ccccc1 (stereo not given) | 0.233 | 0.611
53 | Cc1cc(=O)[nH]c2ccc([N+](=O)[O-])cc12 | 0.244 | 0.609
54 | Fc1ccccc1OCCSc1ncnc2nc[nH]c12 | 0.258 | 0.613
55 | Cc1ccccc1OCCCC(=O)Nc1ccc([N+](=O)[O-])cc1Br | 0.251 | 0.649

Arranged by count of non-hydrogen atoms (low to high): some entries from above
Row | Compound | plate-normalized OD600 growth (temperature: 15°C, 48 h) | plate-normalized OD600 growth (temperature: 37°C, 24 h)
19 | Nc1n[nH]c(-c2ccc(Br)cc2)n1 | 0.255 | 0.611
36 | Cc1ccccc1OC(=O)OCC(C)C | 0.257 | 0.61
34 | O=[N+]([O-])c1ccc(CNC2CCCC2)cc1 | 0.254 | 0.621
52 | CC1CCCC(C)N1C(=O)Cc1ccccc1 (stereo not given) | 0.233 | 0.611
6 | O=C(COc1ccc(Br)cc1)Nc1ccccc1Cl | 0.265 | 0.61
28 | Clc1cccc(CN2CCN(c3ccccn3)CC2)c1 | 0.247 | 0.607
13 | CN1CCCN(Cc2coc3c(Cl)cc(Cl)cc3c2=O)CC1 | 0.245 | 0.631
44 | CCOc1ccc(Nc2nc(-c3ccc(C)c(C)c3)cs2)cc1 | 0.248 | 0.605
30 | COc1cccc(N2CCN(C3C4CC5CC(C4)CC3C5)CC2)c1 (stereo not given) | 0.291 | 0.627
14 | O=C(NC1CCCCC1)c1ccc(Br)c(S(=O)(=O)N2CCCCC2)c1 | 0.25 | 0.611
17 | O=C1CN(S(=O)(=O)CCOc2ccccc2)CC(=O)N1CCc1ccccc1 | 0.256 | 0.632
18 | C#CCSc1nc2ccccc2n1C(=O)c1ccc(S(=O)(=O)N2CCCCC2)cc1 | 0.259 | 0.617
43 | CC(=O)Nc1ccc(-c2cc(-c3ccc(NC(C)=O)cc3)nc(-c3ccccc3)n2)cc1 | 0.246 | 0.587
